Assay results published in patent publication EP0299397A2, “Peptides with vasorelaxing, natriuretic and diuretic activities, preparation process, agents containing them and their use” (HOECHST AKTIENGESELLSCHAFT, priority 1987, dated 1989).
Not every detail of the peptide structures is certain; ends, links or a residue may be inferred. Bridge positions count the residues as written; N and C are the ends. Square brackets hold non-standard residues; d marks the D form. Peptide text beside a SMILES is read from it. * marks the point of attachment. NH(CH2)6NH2 = NCCCCCCN*

Target: Rinder-Nebennierencortex-Membranen
Test: Receptor binding test (displacement of radioligand from bovine adrenal cortex membranes)
Conditions: Bindungsdaten (Atriopeptin III-Verdrängung); radioligand ¹²⁵J-human-Atriales Natriuretisches Peptid₁₋₂₈, 25°C, 60 min, plasma membranes; read-out: IC₅₀[nm] Substanz

CC[C@H](C)[C@@H]1NC(=O)[C@H](CCCNC(=N)N)NC(=O)[C@H](CC(=O)O)NC(=O)[C@H]([C@@H](C)CC)NC(=O)[C@H](CCCNC(=N)N)NC(=O)CNC(=O)[C@@H](C)NC(=O)[C@H](Cc2ccccc2)NC(=O)[C@@H](N)CSSC[C@@H](C(=O)N[C@@H](CC(N)=O)C(=O)N[C@@H](CO)C(=O)N[C@@H](Cc2ccccc2)C(=O)NCCCCCCN)NC(=O)CNC(=O)[C@H](CC(C)C)NC(=O)CNC(=O)[C@H](CO)NC(=O)[C@H](CCC(N)=O)NC(=O)[C@H](C)NC(=O)CNC1=O [Beispiel 17] (H-CF[dA]GRIDRIGAQSGLGCNSF-{NH(CH2)6NH2}; disulfide 1-17)
IC50: 3.2 nM
